Assay [1] deals with Chaetomium thermophilum SND3 with a C-terminal TwinStrep tag (Chaetomium thermophilum) (UniProt G0RYQ7). Nature of the assay: affinity purification with mass spectrometry + SEC; ctSND3-TwinStrep captured on StrepTactin resin from membranes solubilised in 0.5% LMNG, eluted with d-Desthiobiotin, SEC on Superdex 200 increase in 20 mM HEPES pH 8.0, 100 mM potassium acetate, 10 mM magnesium acetate, 0.01% LMNG; Coomassie-stained gel bands identified by MS, western blotting. (A western blot detects proteins with antibodies after separation by electrophoresis.)

Chains of the proteins cited; added tags and fusions are not shown. Lines headed by an entry give the natural chain unless they say otherwise; changes in a name come on top.
UniProt G0S5M5: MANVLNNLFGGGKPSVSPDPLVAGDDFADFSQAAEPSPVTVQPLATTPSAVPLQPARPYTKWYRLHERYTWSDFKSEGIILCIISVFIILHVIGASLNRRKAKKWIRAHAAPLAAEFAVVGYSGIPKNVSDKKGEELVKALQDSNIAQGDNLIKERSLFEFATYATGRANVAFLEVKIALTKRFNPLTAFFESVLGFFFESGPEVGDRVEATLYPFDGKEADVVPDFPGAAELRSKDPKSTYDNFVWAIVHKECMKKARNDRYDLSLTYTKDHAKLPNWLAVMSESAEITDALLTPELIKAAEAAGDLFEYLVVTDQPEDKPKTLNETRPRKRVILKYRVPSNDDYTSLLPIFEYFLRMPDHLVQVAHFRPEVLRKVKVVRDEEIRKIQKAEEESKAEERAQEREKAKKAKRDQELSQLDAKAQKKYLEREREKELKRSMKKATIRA

The target in assay [2] is Chaetomium thermophilum CCDC47 with a FLAG tag (Chaetomium thermophilum) (UniProt G0S5M5). Nature of the assay: affinity purification with mass spectrometry; eluate of the FLAG-IP of ctCCDC47-FLAG (digitonin; membranes treated with micrococcal nuclease), against a control purification from wild-type C. thermophilum, four independent purifications.
The target is the same in assay [3]. Nature of the assay: affinity purification with mass spectrometry; tandem purification from the ctSND3-TwinStrep/ctCCDC47-FLAG strain: StrepTactin resin, then anti-FLAG M2 affinity gel, eluted with 3xFLAG peptide, 0.01% LMNG; Coomassie-stained gel bands identified by MS.

No constants are given. Whether binding was seen depends on the method and setting. In cells and extracts the contact can be indirect. Here binding means that the protein was enriched with, or labelled near, the bait; the list need not be complete.

With “Chaetomium thermophilum CCDC47 (untagged, endogenous) (from UniProt G0S5M5)”, in assay [1], the binding result is on record as “binds”.
As to “Chaetomium thermophilum SND3 with a C-terminal TwinStrep tag (from UniProt G0RYQ7)”, the binding result in assay [2] and in assay [3] was “binds” each time.

(Values after paper PMC12572126.)
